These are yes or no findings as the source states them, for the method shown. In cells and extracts the contact can be indirect. Some binding calls cover weakened binding; strength is not graded here.
Molecular target: T1, beta-carboxyltransferase (β-CT) subunit of hetACCase, ATCG00500, Arabidopsis thaliana (Arabidopsis thaliana) (UniProt P56765)
T1 sequence (looked up): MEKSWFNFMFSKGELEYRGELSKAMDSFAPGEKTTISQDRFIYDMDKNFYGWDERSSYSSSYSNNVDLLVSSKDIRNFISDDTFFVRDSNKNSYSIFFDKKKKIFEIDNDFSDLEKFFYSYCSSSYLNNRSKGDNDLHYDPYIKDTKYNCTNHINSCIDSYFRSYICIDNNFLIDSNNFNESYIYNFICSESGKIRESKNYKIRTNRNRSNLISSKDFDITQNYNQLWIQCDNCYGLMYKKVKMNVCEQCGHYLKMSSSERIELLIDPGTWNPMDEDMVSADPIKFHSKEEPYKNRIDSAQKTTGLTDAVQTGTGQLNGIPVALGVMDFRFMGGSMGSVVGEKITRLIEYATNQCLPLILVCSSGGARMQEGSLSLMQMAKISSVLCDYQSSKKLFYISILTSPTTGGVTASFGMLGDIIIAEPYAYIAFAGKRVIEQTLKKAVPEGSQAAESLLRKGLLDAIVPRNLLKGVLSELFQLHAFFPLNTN
Test: co-IP from A. thaliana chloroplast lysate with anti-α-CT polyclonal antibody, LC-MS/MS

binding: binds
B1: alpha-carboxyltransferase (α-CT) subunit of hetACCase, AT2G38040, Arabidopsis thaliana (enzyme, UniProt Q9LD43 55-769, looked up)
chain: SRLKKGKKFEHPWPANPDPNVKGGVLSYLAEFKPLGDTQKPVTLDFEKPLVELEKKIVDVRKMANETGLDFTEQIITLENKYRQALKDLYTHLTPIQRVNIARHPNRPTFLDHIHNITDKFMELHGDRAGYDDPAIVTGIGTIDGKRYMFIGHQKGRNTKENIMRNFGMPTPHGYRKALRMMYYADHHGFPIVTFIDTPGAYADLKSEELGQGEAIANNLRTMFGLKVPILSIVIGEGGSGGALAIGCANKMLMLENAVFYVASPEACAAILWKTSKAAPEAAEKLRITSKELVKLNVADGIIPEPLGGAHADPSWTSQQIKIAINENMNEFGKMSGEELLKHRMAKYRKIGVFIEGEPIEPSRKINMKKREAVFSDSRKLQGEVDKLKEQILKAKETSTEAEPSSEVLNEMIEKLKSEIDDEYTEAAIAVGLEERLTAMREEFSKASSEEHLMHPVLIEKIEKLKEEFNTRLTDAPNYESLKSKLNMLRDFSRAKAASEATSLKKEINKRFQEAVDRPEIREKVEAIKAEVASSGASSFDELPDALKEKVLKTKGEVEAEMAGVLKSMGLELDAVKQNQKDTAEQIYAANENLQEKLEKLNQEITSKIEEVVRTPEIKSMVELLKVETAKASKTPGVTEAYQKIEALEQQIKQKIAEALNTSGLQEKQDELEKELAAARELAAEESDGSVKEDDDDDEDSSESGKSEMVNPSFA

— US20210171970A1 (CURATORS OF THE UNIVERSITY OF MISSOURI, published 2021)
